Substitutions are numbered along the chain they refer to. These are yes or no findings as the source states them, for the method shown. Binding seen in cells or lysates may run through a third protein. Some results given as binding are weak or reduced against the parent protein; the word gives no strength. Sequences can lack the tags named with a protein.
Assays:
[1] = molecular target: T1, BIO-tagged Sbh1p trans-membrane domain (BIO-SBH1(50-75)) (S. cerevisiae); assay: pull-down; BIO-tagged Sbh1p versions pulled down with streptavidin-coupled magnetic beads from membrane protein-enriched lysates of sbh1Δ RTN1-3HA cells (H3429); 1 h at 4°C, 5 washes; Western blot with anti-Sec61p, anti-HA or HRP-streptavidin (Figures 2B and 3D)
T1 sequence (chain, biotin on the BIO-tag (biotinylated in vivo in yeast)): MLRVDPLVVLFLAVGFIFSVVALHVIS

[2] = molecular target: T2, BIO-tagged full length Sbh1p (BIO-SBH1(1-82)) (S. cerevisiae) (UniProt P52870); assay: as above
T2 sequence (chain, biotin on the BIO-tag (biotinylated in vivo in yeast)): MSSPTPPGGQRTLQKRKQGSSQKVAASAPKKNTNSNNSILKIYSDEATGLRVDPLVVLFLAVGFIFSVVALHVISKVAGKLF

[3] = molecular target: T3, BIO-tagged full length Sbh1p double mutant (BIO-SBH1(1-82, P54S V57G)) (S. cerevisiae) (UniProt P52870); assay: as above
T3 sequence (chain, biotin on the BIO-tag (biotinylated in vivo in yeast)): T2 sequence (chain, biotin on the BIO-tag (biotinylated in vivo in yeast)) with P54S, V57G

[4] = molecular target: T1, BIO-tagged Sbh1p trans-membrane domain (BIO-SBH1(50-75)) (S. cerevisiae); assay: pull-down; BIO-Sbh1p full length or tm-domain pulled down with streptavidin-conjugated magnetic beads from lysates of sbh1Δ RTN1-3XHA RTN2-9xmyc (H3723) or sbh1Δ RTN1-3XHA YOP1-9xmyc (H3722) cells; Western blot with HRP-streptavidin and antibodies to Sec61p, myc and HA (Figure 4)
[5] = molecular target: T2, BIO-tagged full length Sbh1p (BIO-SBH1(1-82)) (S. cerevisiae); assay: as above

Measured: binding

B1: Sec61p (protein, UniProt P32915 1-480)
chain: MSSNRVLDLFKPFESFLPEVIAPERKVPYNQKLIWTGVSLLIFLILGQIPLYGIVSSETSDPLYWLRAMLASNRGTLLELGVSPIITSSMIFQFLQGTQLLQIRPESKQDRELFQIAQKVCAIILILGQALVVVMTGNYGAPSDLGLPICLLLIFQLMFASLIVMLLDELLSKGYGLGSGISLFTATNIAEQIFWRAFAPTTVNSGRGKEFEGAVIAFFHLLAVRKDKKRALVEAFYRTNLPNMFQVLMTVAIFLFVLYLQGFRYELPIRSTKVRGQIGIYPIKLFYTSNTPIMLQSALTSNIFLISQILFQKYPTNPLIRLIGVWGIRPGTQGPQMALSGLAYYIQPLMSLSEALLDPIKTIVYITFVLGSCAVFSKTWIEISGTSPRDIAKQFKDQGMVINGKRETSIYRELKKIIPTAAAFGGATIGALSVGSDLLGTLGSGASILMATTTIYGYYEAAAKEGGFTKNLVPGFSDLM
binds: all assays above

B2: Rtn2p-9myc (protein, UniProt Q12443 1-393)
chain: MNRNTTTNKNANLNNSRNANAPGEAGHQNKTGLIYWTNPSKSGASFAATLVSLLILRNVNVISVLLKIGYMVLFTSFAVELSTKVLFDKGVVSRFGMQESPDLVGVLKPHIDRELDRLPALEDRIRKLVFAHRTRNNFTIGVSLYFLHGLFAIFSMNTVLIMTTIFLYTVPLIYDRKQARIDRAIDRMKDLVIHRFHKNYNKVVEKTEPYIDKIIPPQTDEGSYSTSISNENKSSTSQRNKSGLSSSEFDNMNDTSASKSGKDSYSTSQYNRAEYPVSQNENIGTLKSGKQEIPTEKDFNNRHENFSKPDVKTYDPRTVDIEEELAAHQRELEQNLKDGDYNLVGSKEIPDPITVPAPTRHTTKPAESQSIPIKNNETLHKTTHGLKQKLQHA
binds: [4] | [5]

B3: Yop1p-9myc (protein, UniProt Q12402 1-180)
chain: MSEYASSIHSQMKQFDTKYSGNRILQQLENKTNLPKSYLVAGLGFAYLLLIFINVGGVGEILSNFAGFVLPAYLSLVALKTPTSTDDTQLLTYWIVFSFLSVIEFWSKAILYLIPFYWFLKTVFLIYIALPQTGGARMIYQKIVAPLTDRYILRDVSKTEKDEIRASVNEASKATGASVH
binds: [4] | [5]

Reference: paper PMC2770995
